# Measurements from PubChem BioAssay (EPA / NIEHS).
# Most of the hits are listed elsewhere, so they are rarer here than in the full data. Records with an inconclusive call do not appear. Active and inactive are the calls of the source. How the source made its calls: active means hit-call score of the fitted dose curve at least 0.9, where 1 is the maximum; inconclusive means response in the unintended direction; inactive means score below 0.9.
# Assay: ACEA_AR_agonist_AUC_viability: ACEA Biosciences xCELLigence Real-Time Cell Analysis on Androgen Receptor Agonism for Viability (AID 2283775)
# Procedure, shortened: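 22Rv1 cells; impedance growth kinetics; 8-pt 1:4 dilutions from 100 uM top final, ≤0.5% DMSO; n = 2; 80 h read; AUC viability, loss-of-signal vs DMSO.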
row,SMILES,outcome
1,Cc1ccccc1S(=O)(=O)O,inactive
2,CCCC1CCC(=O)CC1,inactive
3,CC(=O)OC[C@H]1O[C@@](COC(C)=O)(O[C@H]2O[C@H](COC(C)=O)[C@@H](OC(C)=O)[C@H](OC(C)=O)[C@H]2OC(C)=O)[C@@H](OC(C)=O)[C@@H]1OC(C)=O,inactive
4,COc1ccc(N=Nc2cc(C)c(N=Nc3ccc(S(=O)(=O)O)cc3)cc2OC)cc1,inactive
5,CCOC(=O)Cc1cccc2ccccc12,inactive
6,CCCCCCCCN1CCCC1=O,inactive
7,CCCCCCCCCCCCCC(=O)O,inactive
8,CO[Si](OC)(OC)c1ccccc1,inactive
9,O=C(C=Cc1ccccc1)OCc1ccccc1,inactive
10,CCOc1ccc(N=Nc2ccc(C=Cc3ccc(N=Nc4ccc(OCC)cc4)cc3S(=O)(=O)O)c(S(=O)(=O)O)c2)cc1,inactive
11,CCCCOc1ccc(N)cc1,inactive
12,CN(C)c1cccc(O)c1,inactive
13,CC(C)Nc1nc(N)nc(Cl)n1,inactive
14,O=C1NC(=O)c2ccccc21,inactive
15,CCCCCCCCOS(=O)(=O)O,inactive
16,C/C=C/C=C/CCCCCCCO,inactive
17,CC(C)c1ccccc1O,inactive
18,CC(C)(C)c1ccc(N)cc1,inactive
19,CCCCCCCCCCCC(=O)OCC(O)CO (stereo unspecified),inactive
20,Nc1ccc(S(=O)(=O)Nc2cnc3ccccc3n2)cc1,inactive

# Assay: ACEA_AR_antagonist_AUC_viability: ACEA Biosciences xCELLigence Real-Time Cell Analysis on Androgen Receptor Antagonism for Viability (AID 2283776);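 further: 22Rv1 human prostate cancer cells growing on impedance electrode plates; area under impedance growth curve at 80 h after dosing as viability; hits lower the growth signal relative to DMSO meaning cytotoxicity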
# Procedure, shortened: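 Viability endpoint from label-free cell-index monitoring: 22Rv1 cultures treated with an eight-point 1:4 dilution series starting at 100 uM final, AUC at 80 h fitted against DMSO.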
SMILES,outcome,AC50
Cc1ccccc1S(=O)(=O)O,inactive,
CCCCN(CCCC)CCCCCCN(CCCC)CCCC,inactive,
O=C(O)C1CCC(C(=O)O)CC1 (stereo unspecified),inactive,
Cc1cc(C)c(C)cc1C,inactive,
CCCC1CCC(=O)CC1,inactive,
CCCCCCCCCCN,inactive,
CC(=O)OC(C)(C)C,inactive,
NC(=O)N(O)[C@@H]1COc2cc(OCc3ccccc3)ccc21,,active: 24.4 µM
CCCCNC(=S)NCCCC,inactive,
COc1ccc(N=Nc2cc(C)c(N=Nc3ccc(S(=O)(=O)O)cc3)cc2OC)cc1,inactive,
CCCCCCCCOC(=O)c1ccc(O)cc1,inactive,
CCOC(=O)Cc1cccc2ccccc12,inactive,
O=c1c(O)c(-c2ccc(O)cc2O)oc2cc(O)cc(O)c12,inactive,
CCCCCCCCN1CCCC1=O,inactive,
C=C1C2CCC(C2)C1(C)C (stereo unspecified),inactive,
NC(=O)Nc1ccc(Cl)cc1,inactive,

SMILES,outcome,AC50
CCCCCCCCCCCCCC(=O)O,inactive,
CO[Si](OC)(OC)c1ccccc1,inactive,
CCC(=O)/C=C/C1C(C)=CCCC1(C)C (stereo unspecified),inactive,
CCCCNS(=O)(=O)c1ccc(C)cc1,inactive,
CCOc1ccc(N=Nc2ccc(C=Cc3ccc(N=Nc4ccc(OCC)cc4)cc3S(=O)(=O)O)c(S(=O)(=O)O)c2)cc1,inactive,
CCCCOc1ccc(N)cc1,inactive,
CC(C)Nc1nc(N)nc(Cl)n1,inactive,
c1ccc(CCCc2ccccn2)cc1,inactive,
Cc1ccc(S(=O)(=O)NCl)cc1,inactive,
CCCCCCCCOS(=O)(=O)O,inactive,
C/C=C/C=C/CCCCCCCO,inactive,
CC(C)(C)c1ccc(S)cc1,inactive,
O=C1CCCC1,inactive,
C=C(C)C(=O)OCCC(C)OC(=O)C(=C)C (stereo unspecified),inactive,
Nc1ccc(S(=O)(=O)Nc2cnc3ccccc3n2)cc1,inactive,
